# Data as given in paper PMC12485744.
# Target: T1, 3XFLAG-Foxh1 (Xenopus (said of the protein in general; species of the cDNA not stated)) (UniProt P70056)
# T1 sequence: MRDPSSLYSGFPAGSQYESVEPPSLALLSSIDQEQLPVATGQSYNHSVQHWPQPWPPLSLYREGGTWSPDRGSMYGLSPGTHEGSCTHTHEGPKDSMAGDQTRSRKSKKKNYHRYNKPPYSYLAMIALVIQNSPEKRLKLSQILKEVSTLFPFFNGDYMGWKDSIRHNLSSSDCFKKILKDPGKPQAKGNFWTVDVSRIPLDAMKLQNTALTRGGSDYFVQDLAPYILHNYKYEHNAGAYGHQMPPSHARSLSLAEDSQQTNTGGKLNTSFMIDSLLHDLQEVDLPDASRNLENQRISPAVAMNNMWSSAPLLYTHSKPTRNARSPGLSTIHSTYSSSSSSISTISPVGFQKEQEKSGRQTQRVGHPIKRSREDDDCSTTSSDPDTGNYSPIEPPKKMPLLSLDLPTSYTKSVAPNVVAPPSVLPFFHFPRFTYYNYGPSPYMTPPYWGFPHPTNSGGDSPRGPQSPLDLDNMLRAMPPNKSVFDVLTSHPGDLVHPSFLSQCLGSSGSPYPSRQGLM
# Assay: co-IP; HEK293T cells co-transfected with HA-Ezh2 and 3XFLAG-Foxh1, -Foxi2 or -Sox3 for 24 hours; immunoprecipitation with Flag-M2 beads; western blot with anti-FLAG and anti-HA
substance,measurement,value
HA-Ezh2,binding,binds

# Results are given in words; binding and its absence hold for the method and conditions named. In cells and extracts the contact can be indirect. A result given as binding can be weak or reduced; the word gives no strength. Tags and fused reporters may be left off the sequences shown.
